Measured values: PubChem BioAssay AID743238 (Broad Institute, 2013)
In all, about 360,000 compounds went through this assay and about 200 (0.056%) were called active. This list was built around the results that the source calls inconclusive (neither active nor inactive); the mix of calls is not that of the screen.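 How the source made its calls: active means mean normalized replicate activation at least 10% and every replicate at or above 10%; inconclusive means only one of the two criteria met; inactive means mean below 10% and not all replicates reach 10%.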

experiment: activators of inactive X chromosome reactivation, primary screen, imaging, XiGFP fibroblasts, GFP high-content imaging, set 2 (AID 743238); details: XiGFP mouse fibroblasts, % GFP-positive cells imaging, 3 d; at 7.58 µM; hits give high values; cells co-treated with 5-aza-dC sensitizer; scaled so ellipticine positive control = 100%;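 further: 0% = median of on-plate neutral control wells and 100% = ellipticine 6 µM median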
Summary of the method: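 Schedule: 3 d treatment, 15 min room-temperature fixation; system: 68-5-11 XiGFP fibroblast line; buffer or medium: DMEM plus 5-aza-dC sensitizer; control set: ellipticine 6 µM positive control; compound: one concentration, pinned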

For CO[C@H]1CN(C)C(=O)c2ccc(NC(=O)C3CCCCC3)cc2OC[C@H](C)NC[C@@H]1C, which activation is on record?
The activation was inconclusive: 16%.

With CC1CN(Cc2c(O)ccc3c2oc(=O)c2ccccc23)CC(C)O1 (centres undefined) as the compound, how does the activation read?
The activation was inconclusive: 15%.

For CC(C)CCN1CCN(Cc2cc3ccccc3[nH]2)CC1CCO (centres undefined), which activation is on record?
Its activation is inconclusive: 10.2%.

Which activation does the source give for COc1ccc2c3c([nH]c2c1)[C@@H](CO)N(C(=O)NC(C)C)CC31CCN(C(=O)c2cccnc2)CC1 here?
Its activation is inactive: 0.239%.

For COc1ccc2c3c([nH]c2c1)[C@@H](CO)N(Cc1ccccc1F)CC31CN(C(=O)C2CCOCC2)C1, which activation is on record?
The activation was inconclusive: 16.8%.

Which activation does the source give for COc1ccc(C(=O)Oc2ccc3ccc(=O)oc3c2)cc1 here?
The activation was inactive: -0.074%.

Which activation does the source give for O=C(O)/C=C/C(=O)Nc1ccc(-n2nccc2C(F)(F)F)cc1 here?
The activation was inconclusive: 15.5%.

Which activation does the source give for Cn1c(=O)[nH]c(=O)c2c1nc1n2CCCN1Cc1ccccc1 here?
Its activation is inconclusive: 11.3%.

With COc1ccc(C(=O)Nc2c(F)c(F)c(F)c(F)c2F)cc1OC as the compound, how does the activation read?
Its activation is inconclusive: 13.2%.

Which activation does the source give for CCc1ccc(CN(C)C(=O)c2cc(S(=O)(=O)N3CCOCC3)ccc2N2CCCC2)cc1 here?
Its activation is inconclusive: 19.9%.

With O=C(NNC(=O)c1cc2ccccc2o1)c1ccc(Cl)cc1 as the compound, how does the activation read?
Its activation is inconclusive: 13.7%.

Which activation does the source give for COc1ccc(OC)c(NC(=O)Nc2ccc3[nH]ccc3c2)c1 here?
Its activation is inconclusive: 19.3%.

Which activation does the source give for O=C(CCC(=O)Nc1cccnc1)Nc1cccnc1 here?
The activation was inconclusive: 22%.

For C[C@H](CO)N1C[C@H](C)[C@H](CN(C)Cc2cccc(F)c2)Oc2cc(C#CC3CC3)ccc2S1(=O)=O, which activation is on record?
Its activation is inactive: -0.237%.

With Cc1nn(-c2ccccc2)c(N)c1N=O as the compound, how does the activation read?
Its activation is inconclusive: 20%.

With CC(C)c1ccc(N2C(=O)/C(=C/N(C)C)SC2=S)cc1 as the compound, how does the activation read?
The activation was inconclusive: 44.5%.

With CCCNC(=O)N1[C@H](CO)[C@@H](c2ccccc2C2=CCCC2)[C@@H]1C#N as the compound, how does the activation read?
Its activation is inactive: 0.143%.

For CC(=O)Nc1ccc(S(=O)(=O)N(C)c2ccc(OCC(=O)NCCc3ccccc3F)cc2)cc1, which activation is on record?
The activation was inconclusive: 11%.

Which activation does the source give for CC(=O)C1=NN(c2ccc(Cl)cc2)C(c2ccc3c(c2)OCO3)N(C(C)=O)N1C (centres undefined) here?
Its activation is inconclusive: 11.7%.

With CCN1CCN(CCCNC(=O)c2ccc3c(c2)N(Cc2ccccc2)CCS3)CC1 as the compound, how does the activation read?
Its activation is inactive: 0.0165%.

Which activation does the source give for CS(=O)(=O)N1CCC(C(=O)NCc2ccccc2)CC1 here?
The activation was inactive: 0.372%.

Which activation does the source give for N#C/C(=C/c1ccc(-c2ccccc2)o1)c1nc(-c2cccs2)cs1 here?
Its activation is active: 76.7%.

With O=C(COC(=O)COc1cccc(C(F)(F)F)c1)NC1CCS(=O)(=O)C1 (centres undefined) as the compound, how does the activation read?
Its activation is inconclusive: 20.7%.

With N#C/C(=C/c1ccc(-c2ccc(S(N)(=O)=O)cc2)o1)c1nc2ccccc2s1 as the compound, how does the activation read?
Its activation is active: 92.4%.

For CN(C)CCN(C(=O)c1ccc(S(=O)(=O)N(C)c2ccccc2)cc1)c1nc2cc3c(cc2s1)OCCO3, which activation is on record?
Its activation is inconclusive: 29.5%.

Which activation does the source give for C[C@@H]1CN([C@H](C)CO)C(=O)Cc2cc(NC(=O)Nc3ccc(C(F)(F)F)cc3)ccc2O[C@@H]1CN(C)S(=O)(=O)c1cccs1 here?
The activation was inactive: 0.093%.

With Cc1cccc(CN(C)C[C@@H]2Oc3ncc(C#Cc4ccccc4)cc3C(=O)N([C@H](C)CO)C[C@@H]2C)c1 as the compound, how does the activation read?
The activation was active: 14.5%.

For C[C@H](NC(=O)C[C@@H]1CC[C@H](NC(=O)Cc2ccccn2)[C@@H](CO)O1)c1ccccc1, which activation is on record?
Its activation is inconclusive: 21%.

Which activation does the source give for CCn1c(Cl)c(C=O)s/c1=N\S(=O)(=O)c1ccccc1 here?
Its activation is active: 34.6%.

With COc1ccc(S(=O)(=O)N(CC(=O)NC2CC2)c2ccc(C)cc2)cc1 as the compound, how does the activation read?
The activation was inconclusive: 11%.

With CC1=[N+](C)c2c(ccc3cccnc23)C1(C)C as the compound, how does the activation read?
Its activation is inconclusive: 17.1%.

With COc1ccccc1N=Nc1c(C)[nH]n(-c2ccccc2)c1=O as the compound, how does the activation read?
The activation was inconclusive: 13.8%.

With CCOC(=O)CSc1nnc(CCCCCN2C(=O)c3cccc4cccc(c34)C2=O)o1 as the compound, how does the activation read?
The activation was inconclusive: 16.3%.

For CC1CCCC(NC(=O)CSc2cccc[n+]2[O-])C1C (centres undefined), which activation is on record?
Its activation is inconclusive: 14.1%.

Which activation does the source give for CC1=NN(c2nc(N)nc(/C(C#N)=C/c3ccc([N+](=O)[O-])o3)n2)C(C)(C)C1 here?
The activation was active: 72.7%.

Which activation does the source give for Cc1cc(NC(=O)CSc2nnc(-c3c[nH]c4ccccc34)n2-c2ccc(F)cc2)no1 here?
The activation was inconclusive: 22%.

With O=C(O)c1ccccc1C1Nc2ccccc2C(=O)N1CCCN1CCOCC1 (centres undefined) as the compound, how does the activation read?
The activation was inconclusive: 18.1%.

For Cc1cc(N)ncc1[N+](=O)[O-], which activation is on record?
Its activation is inconclusive: 19.1%.

With COC(=O)C1=C(C)NC(C)=C(C(=O)OC)C1C(=O)OCC(=O)c1ccc(F)cc1 as the compound, how does the activation read?
Its activation is inconclusive: 44.8%.

Which activation does the source give for Cc1c(/C=N\NC(=O)c2cc3ccccc3o2)c2ccccc2n1C here?
The activation was active: 16.6%.

For CC(C)NC(=O)N(C)C[C@@H]1OCCCC[C@H](C)Oc2ccc(NC(=O)Nc3ccc(C(F)(F)F)cc3)cc2C(=O)N([C@H](C)CO)C[C@@H]1C, which activation is on record?
The activation was inconclusive: 18.5%.

With O=C(NC1=NN(c2ccccc2)CC1)Nc1ccccc1F as the compound, how does the activation read?
Its activation is active: 50.3%.

Which activation does the source give for C[C@H]1CN([C@@H](C)CO)C(=O)Cc2cc(NS(=O)(=O)c3cn(C)cn3)ccc2O[C@H]1CN(C)S(=O)(=O)c1cccs1 here?
The activation was inactive: -0.135%.

With COCC(=O)N1[C@@H](CO)[C@@H]2c3ccccc3N(C(=O)Nc3ccccc3F)C[C@@H]21 as the compound, how does the activation read?
Its activation is inactive: -0.0725%.

Which activation does the source give for C[C@H]1CN([C@@H](C)CO)C(=O)c2ccccc2-c2ccccc2CO[C@H]1CN(C)C(=O)[C@@H](Cc1ccccc1)N(C)C here?
Its activation is inconclusive: 13.8%.

For O=C1c2ccccc2C(=O)C1c1ccccc1, which activation is on record?
Its activation is inconclusive: 17.3%.

With C[C@H](NC(=O)C[C@H]1CC[C@H]2[C@@H](COC[C@@H](O)CN2C(=O)Nc2cc(Cl)cc(Cl)c2)O1)c1ccccc1 as the compound, how does the activation read?
The activation was inactive: 0.325%.

For Cc1ccc(C)c(OCCC(=O)Nc2cccc(S(=O)(=O)NC3=NCCCCC3)c2)c1, which activation is on record?
Its activation is inactive: 0.545%.

Which activation does the source give for CC1CCCCN1c1ncnc(N)c1[N+](=O)[O-] (centres undefined) here?
The activation was inactive: 0%.

For CC1CC(C)CN(C(=O)C(C)N2CCN(S(=O)(=O)c3ccccc3F)CC2)C1 (centres undefined), which activation is on record?
Its activation is inconclusive: 11.4%.

For CCCCC(CCC(=O)Nc1ccn(-c2ccccc2)n1)C(=O)O (centres undefined), which activation is on record?
Its activation is inconclusive: 26.6%.

With CCN1CCc2c(sc(NC(=O)c3ccc(S(=O)(=O)N(CC)c4ccccc4)cc3)c2C(N)=O)C1 as the compound, how does the activation read?
Its activation is active: 72.8%.

For COc1cccc(-c2ccc3c(c2)O[C@@H](CN(C)Cc2ccncc2)[C@@H](C)CN([C@H](C)CO)S3(=O)=O)c1, which activation is on record?
The activation was inactive: 0.386%.

For O=C1C=CC(=O)N1Cc1ccncc1, which activation is on record?
The activation was inactive: 0.0725%.

With C[C@@H]1CN([C@H](C)CO)C(=O)c2cccc(NC(=O)NC3CCCCC3)c2O[C@H]1CN(C)CC1CCCCC1 as the compound, how does the activation read?
Its activation is inactive: -1.28%.

Which activation does the source give for Brc1cccc(CNCC2CCCO2)c1 (centres undefined) here?
Its activation is inconclusive: 46.6%.

With Cc1nc(NC(=O)c2ccc(-c3cc4ccccc4oc3=O)cc2)ccc1Br as the compound, how does the activation read?
The activation was inactive: 0.297%.

For O=C(O)c1cc2n(n1)C(C(F)(F)F)CC(C1CC1)N2 (centres undefined), which activation is on record?
The activation was inactive: 0.524%.

With C[C@H](CO)N1C[C@H](C)[C@@H](CN(C)Cc2ccc3c(c2)OCO3)Oc2ccc(NC(=O)CCN3CCOCC3)cc2C1=O as the compound, how does the activation read?
The activation was inactive: -0.912%.

For C[C@H](CO)N1C[C@H](C)[C@H](CN(C)S(=O)(=O)c2ccccc2)Oc2ccc(NS(=O)(=O)c3ccc(Cl)cc3)cc2C1=O, which activation is on record?
Its activation is inconclusive: 12.2%.

For CSc1cccc(NC(=O)/C=C/c2cccc(Cl)c2)c1, which activation is on record?
Its activation is inactive: -0.0075%.

With C[C@@H]1CN([C@@H](C)CO)C(=O)c2cc(-c3ccc(F)cc3)cnc2O[C@@H]1CN(C)CC1CC1 as the compound, how does the activation read?
Its activation is inactive: 1.24%.

With CC(=O)c1ccc(C(=O)Nc2sc3c(c2C(N)=O)CCN(Cc2ccccc2)C3)cc1 as the compound, how does the activation read?
The activation was active: 38.7%.

With CC(=O)N(C)C[C@@H]1Oc2ncc(-c3cccnc3)cc2C(=O)N([C@@H](C)CO)C[C@@H]1C as the compound, how does the activation read?
Its activation is inconclusive: 55.6%.

Which activation does the source give for CC(C)(C)C1CCNC(=O)CC1 (centres undefined) here?
The activation was inconclusive: 34.5%.

With CCCN(C(=O)c1ccc(-n2cncn2)c([N+](=O)[O-])c1)C1CCS(=O)(=O)C1 (centres undefined) as the compound, how does the activation read?
Its activation is inconclusive: 17.2%.

For COc1ccc(N=Nc2ccc(O)c(P(=O)(c3ccccc3)c3ccccc3)c2)cc1, which activation is on record?
The activation was inconclusive: 11.4%.

Which activation does the source give for Nc1nc(Nc2ccc(Cl)cc2)c(NC=O)c(=O)[nH]1 here?
The activation was inconclusive: 16.3%.

Which activation does the source give for Nc1[nH]c(=O)nc(Nc2ccccc2)c1N=O here?
Its activation is inconclusive: 19.6%.

With Cc1cccn2c(=O)c3cc(C(=O)NCc4ccc(F)cc4)c(=N)n(CCCN4CCOCC4)c3nc12 as the compound, how does the activation read?
Its activation is inconclusive: 10.6%.

With Cc1cc(C(=O)Nc2ccc(Cl)c(S(=O)(=O)N3CCOCC3)c2)c2ccccc2n1 as the compound, how does the activation read?
The activation was inconclusive: 11.1%.

With C[C@@H]1CCCCO[C@H](CN(C)S(C)(=O)=O)[C@H](C)CN([C@@H](C)CO)C(=O)c2cc(NC(=O)Nc3ccc(F)cc3)ccc2O1 as the compound, how does the activation read?
The activation was inactive: 0.057%.

Which activation does the source give for CC1CCN(C(=O)Cn2nnc(-c3ccccc3)n2)CC1 here?
Its activation is inconclusive: 12.7%.

Which activation does the source give for CCOC(=O)c1cc(-c2ccccc2C)nn1Cc1cc(C)no1 here?
The activation was inactive: 0.133%.

Which activation does the source give for CC(C)C(C)N(Cc1cccc(C(=O)O)c1)C(=O)c1ccc2ccccc2n1 (centres undefined) here?
Its activation is inconclusive: 17.2%.

With COc1ccc2c3c(n(C)c2c1)[C@@H](CO)N(C(=O)C1CCCCC1)CC31CCN(C(=O)c2ccncc2)CC1 as the compound, how does the activation read?
Its activation is inactive: 0.234%.

For CCOC(=O)Cc1csc(NC(=O)Nc2ccc(F)cc2)n1, which activation is on record?
Its activation is inconclusive: 21.8%.

For Cc1ccc(C)c(OCCC(=O)Nc2cc(S(=O)(=O)N3CCCCC3)ccc2C)c1, which activation is on record?
Its activation is inconclusive: 10.1%.

With COc1ccccc1N(C)c1cc2c(c3c1ccn3C)C1CCC2C1 (centres undefined) as the compound, how does the activation read?
Its activation is active: 11.7%.
